Data published in US20240002405A1, “ANTIMICROBIAL COMPOUNDS, SYNTHESIS METHODS, AND USES THEREOF” (Ankh Life Sciences Limited, priority 2022, published 2024).
Some entries share one result that the patent states for a list of compounds.

Test system: engineered Salmonella typhimurium strain (umuC, β-galactosidase)
Conditions: without S9 activation

| Compound | genotoxic concentration (not genotoxic up to / toxicity above) |
| --- | --- |
| COc1ccc2c3c([nH]c2c1)C(CC(CC1=NCCc2c1[nH]c1cc(OC)ccc21)c1cccnc1)=NCC3 [GK517.3, 1,1′-(2-(pyridin-3-yl)propane-1,3-diyl)bis(7-methoxy-4,9-dihydro-3H-pyrido[3,4-b]indole)] | > 100 µM |
| COc1ccc2c3c([nH]c2c1)C(CC(CC1=NCCc2c1[nH]c1cc(OC)ccc21)c1cncs1)=NCC3 [GK524] | > 100 µM |
